The values that follow come from paper PMC4860859.

By UniProt entry, the sequences of proteins in these tests, tags left out.
UniProt P14635: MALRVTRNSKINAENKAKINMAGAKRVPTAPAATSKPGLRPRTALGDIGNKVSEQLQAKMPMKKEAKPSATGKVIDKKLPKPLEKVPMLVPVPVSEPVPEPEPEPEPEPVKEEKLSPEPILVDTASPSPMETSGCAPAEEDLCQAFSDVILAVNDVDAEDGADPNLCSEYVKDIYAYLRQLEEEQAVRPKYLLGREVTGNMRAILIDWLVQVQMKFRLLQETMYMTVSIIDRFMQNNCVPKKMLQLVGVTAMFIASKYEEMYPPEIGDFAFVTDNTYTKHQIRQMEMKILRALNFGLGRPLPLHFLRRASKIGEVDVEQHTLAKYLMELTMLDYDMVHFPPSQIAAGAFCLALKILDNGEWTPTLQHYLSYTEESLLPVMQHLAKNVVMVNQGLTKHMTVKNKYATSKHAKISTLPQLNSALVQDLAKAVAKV
UniProt Q08301: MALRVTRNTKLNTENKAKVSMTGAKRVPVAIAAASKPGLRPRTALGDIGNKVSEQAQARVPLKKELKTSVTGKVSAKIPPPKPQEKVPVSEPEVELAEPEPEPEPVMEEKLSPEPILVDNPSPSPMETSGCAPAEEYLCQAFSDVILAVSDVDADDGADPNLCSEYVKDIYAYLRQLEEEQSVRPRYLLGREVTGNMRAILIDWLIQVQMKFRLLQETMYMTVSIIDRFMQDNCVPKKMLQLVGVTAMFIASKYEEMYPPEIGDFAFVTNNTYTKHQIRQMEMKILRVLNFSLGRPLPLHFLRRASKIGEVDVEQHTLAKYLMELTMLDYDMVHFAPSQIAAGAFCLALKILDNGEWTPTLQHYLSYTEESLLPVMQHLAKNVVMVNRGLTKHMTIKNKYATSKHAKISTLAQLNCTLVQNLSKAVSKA

Results are given in words; binding and its absence hold for the method and conditions named. Binding seen in cells or lysates may run through a third protein. Some results given as binding are weak or reduced against the parent protein; the word gives no strength. Tags and fused reporters may be left off the sequences shown.

Test [1] has as its target T1, Human ERLIN2 tagged with V5, stably expressed in CHO cells (human) (UniProt O94905).
T1 sequence: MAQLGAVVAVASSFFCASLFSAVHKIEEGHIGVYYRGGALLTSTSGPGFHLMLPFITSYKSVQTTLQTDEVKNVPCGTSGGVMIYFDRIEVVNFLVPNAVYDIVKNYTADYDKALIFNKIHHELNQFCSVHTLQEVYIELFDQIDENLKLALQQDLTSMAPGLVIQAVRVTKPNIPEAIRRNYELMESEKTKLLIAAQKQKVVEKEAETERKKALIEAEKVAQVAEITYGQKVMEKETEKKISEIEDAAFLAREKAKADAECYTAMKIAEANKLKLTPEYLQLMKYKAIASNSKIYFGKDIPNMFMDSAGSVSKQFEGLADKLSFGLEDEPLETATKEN
Kind of test: co-IP; CHO cell line stably expressing V5-tagged ERLIN2, transfected with flag-tagged Cyclin B1 or its truncated forms; IP with anti-V5 or rabbit IgG (negative control); blot with anti-flag; short and long film exposures.

Test [2] has as its target T1, Human ERLIN2 tagged with V5, stably expressed in CHO cells (human). Kind of test: co-IP; ERLIN2 (V5)-expressing CHO cells synchronized at G2/M phase (nocodazole, 16 h); IP with anti-V5 or anti-HA (negative control); blots with anti-Cyclin B1, anti-Cdk1, anti-α-tubulin.
Test [3] shares this target. Kind of test: condition: only cells synchronized in interphase (G0, G1 or S phase); co-IP; ERLIN2 (V5)-expressing CHO cells synchronized in interphase (G0, G1 or S phase, serum starvation and release); IP with anti-V5 or anti-HA (negative control); blots with anti-Cyclin B1, anti-Cdk1.

For “flag-tagged full-length Cyclin B1 (from UniProt P14635 1-433)”, the binding entry in test [1] is on record as “binds”.

On to “Cyclin B1, endogenous in CHO cells (from UniProt Q08301 1-429)”, for which the figures for the binding result in test [2] and in test [3] were “binds” and “no binding”, respectively.
